PubChem BioAssay AID1053208 – Peter MacCallum Cancer Centre – 2014

- Aim: 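Genes whose silencing cuts survival of bone tumour cells only with doxorubicin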 (primary screen)
- System: mouse osteosarcoma cells, early-passage culture from an engineered mouse model of fibroblastic bone tumour
- Reagents: siRNA pool against mouse genes, 40 nM
- Time to read-out: about 120 h (48 h before drug, then 72 h with drug)
- Treatment: doxorubicin 100 nM for 72 h, roughly 30-40% inhibitory dose
- Detection: 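Luminescent ATP signal taken as viability with or without 100 nM doxorubicin for 72 h; mean of two wells set against non-targeting siRNA and turned into robust z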
- Scale: viability z-score with doxorubicin: higher = more viable cells under doxorubicin; viability z-score without drug: higher = more viable cells with knock-down alone
- Rule for the call: 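a pool counts as active when its viability z-score with doxorubicin is -2 or below and its z-score without drug lies between -2 and 2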
The deposit covers about 17,000 reagents; this is a random part of them. 788 of them (4.7%) were called active. 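Calls rest on z-score classes alone; an extra cut-off of viability at most 70% of control was not applied to them.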 A number with no mark means an inactive call. Not all columns of the deposit are shown.

target gene	combined z-score class	viability z-score with doxorubicin	viability z-score without drug
Fnbp4	no change with or without drug	-0.45	-0.51
Or10h28	no change with or without drug	-0.45	-0.51
Erbb4	no change with or without drug	0.56	-0.34
Cnpy2	low cell count without drug only	-0.45	-4.55
Upk1b	no change with or without drug	-0.9	-0.84
Mpzl2	no change with or without drug	0.67	0.17
Cop1	no change with or without drug	-0.9	-0.67
Otud7a	no change with or without drug	0.67	0.51
Or2ag1	no change with or without drug	-1.01	-0.67
Atp5mg	no change with or without drug	-0.79	-1.01
Ncoa4	no change with or without drug	0.9	-1.01
Ttc14	no change with or without drug	-1.35	-1.52
Rp1	no change with or without drug	1.12	0.17
Acss1	no change with or without drug	0.45	-0.17
Slc6a6	no change with or without drug	0.67	1.01
Bche	low cell count without drug only	-0.22	-2.7
Fntb	no change with or without drug	-0.9	-0.84
Myg1	no change with or without drug	0.67	1.69
Barx1	low cell count with doxorubicin only (active)	-2.25	0.17
Tecrl	no change with or without drug	0	-0.34
Or12d17	no change with or without drug	0	-0.67
Zmat5	no change with or without drug	0	-0.84
Neurod6	no change with or without drug	-0.34	-0.84
Ccdc7b	no change with or without drug	-0.22	0.84
Jak1	no change with or without drug	0	-1.18
Cuta	no change with or without drug	1.91	-0.67
Cphx1	no change with or without drug	0.45	0.51
Fam13a	no change with or without drug	0.22	1.52
Tspyl5	no change with or without drug	0.67	1.01
A530095I07Rik	no change with or without drug	0.56	-0.51
Ahcy	no change with or without drug	0.11	-0.34
Mbd3l2	low cell count without drug only	-0.45	-2.53
4930544M13Rik	no change with or without drug	1.8	0.84
Adam21	no change with or without drug	-0.45	-0.17
Ndufaf7	no change with or without drug	0.9	1.35
1700065D16Rik	high cell count without drug only	1.01	2.7
Enpp4	no change with or without drug	-0.79	0
Carnmt1	no change with or without drug	0.67	1.85

Reprinted from above for reference:
target gene	combined z-score class	viability z-score with doxorubicin	viability z-score without drug
Erbb4	no change with or without drug	0.56	-0.34
Cnpy2	low cell count without drug only	-0.45	-4.55
Upk1b	no change with or without drug	-0.9	-0.84
Mpzl2	no change with or without drug	0.67	0.17
Cop1	no change with or without drug	-0.9	-0.67
Otud7a	no change with or without drug	0.67	0.51
Or2ag1	no change with or without drug	-1.01	-0.67
Atp5mg	no change with or without drug	-0.79	-1.01
Ncoa4	no change with or without drug	0.9	-1.01

The list goes on.
target gene	combined z-score class	viability z-score with doxorubicin	viability z-score without drug
Adi1	no change with or without drug	0	0.17
Chat	no change with or without drug	-0.34	-1.01
Rnd3	no change with or without drug	-0.22	0.51
Ssx2ip	no change with or without drug	0.22	-0.34
Homez	no change with or without drug	0.45	0
Pde9a	no change with or without drug	0.56	-0.84
Spesp1	no change with or without drug	0.45	1.85
Gck	no change with or without drug	0.11	-0.51
Or5w22	low cell count without drug only	-1.01	-2.19
Zbtb11os1	no change with or without drug	-1.35	0.51
Krt42	no change with or without drug	-0.45	0.84
Rnf212	no change with or without drug	-0.9	0.84
Map4k2	low cell count without drug only	-1.12	-2.02
Epb41l4a	no change with or without drug	-0.34	0.17
Seh1l	no change with or without drug	-1.46	-1.18
Adgrl1	no change with or without drug	0.67	0.34
Ccdc68	low cell count with doxorubicin only (active)	-2.02	-1.69
Slc24a3	no change with or without drug	-1.12	-0.17
Tsc22d4	no change with or without drug	0.34	-0.67
Bivm	no change with or without drug	1.01	0.84
Timcc	no change with or without drug	-0.9	0
Gad2	no change with or without drug	1.46	0
Oas1c	no change with or without drug	0.79	0.51
Tyms	no change with or without drug	-0.22	-0.51
Hoxb2	no change with or without drug	-0.9	-1.69
